Data as given in PubChem BioAssay AID720505 (Drosophila RNAi Screening Center, 2013).
In all, the deposit lists about 20,000 reagents; below is an unselected part of those that have a named target and a result. Over the whole deposit, about 2,100 (10%) are marked active. 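Raw plate signals without normalisation; calls rest on control-based scores that were not deposited; replicate 2 separates called from uncalled poorly.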 A plus sign joins genes that one reagent is predicted to hit. Not given: the amount of reagent, the time to read-out.

- Aim: 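Knock-downs that reduce calcium influx once internal stores are emptied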 (primary screen)
- System: Drosophila S2R+ cells
- Knock-down reagent: long dsRNA against Drosophila genes
- Conditions: thapsigargin (2 µM) in calcium-free buffer to empty internal stores, then 2 mM calcium added back
- Measurement: 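Stores emptied by 2 µM thapsigargin without calcium, then 2 mM calcium re-added; fluo-4 fluorescence followed by FLIPR in 384-well plates, per-well averaged endpoint, raw; two screen passes, some wells retested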
- Scale: calcium signal and retest calcium signal: higher = more calcium entry after store depletion
- Call rule: 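Knock-downs counted as hits when calcium entry dropped relative to STIM1 positive and Rho1 negative controls present on each plate; roughly 1500 genes called, with reductions of differing size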
- Meaning of the calls: active = called as lowering calcium entry; inactive = not called

| target | DRSC id | calcium signal, replicate 1 | calcium signal, replicate 2 | retest calcium signal, replicate 1 | retest calcium signal, replicate 2 | outcome |
| --- | --- | --- | --- | --- | --- | --- |
| His3.3A (Histone H3.3A) | DRSC03343 | 69.8 | 107 | – | – | active |
| CG43066 | DRSC06927 | 169 | 233 | 106 | 96.5 | inactive |
| CG14346 | DRSC00376 | 162 | 167 | – | – | inactive |
| CG34430 | DRSC06499 | 91 | 126 | – | – | inactive |
| schuy (schumacher-levy) | DRSC10284 | 109 | 129 | – | – | inactive |
| Sf3b6 (Splicing factor 3b subunit 6) | DRSC09972 | 89.5 | 92.9 | – | – | inactive |
| Schip1 (Schwannomin interacting protein 1) | DRSC02851 | 155 | 184 | – | – | inactive |
| Npc2b (Niemann-Pick type C-2b) | DRSC15464 | 163 | 196 | – | – | inactive |
| Cyp6v1 (Cytochrome P450 6v1) | DRSC20565 | 57.8 | 141 | – | – | active |
| wg (wingless) | DRSC03636 | 145 | 94.2 | – | – | inactive |
| CG40191 | DRSC21041 | 61.6 | 105 | – | – | inactive |
| mGluR (metabotropic Glutamate Receptor) | DRSC17215 | 118 | 124 | – | – | inactive |
| dop (drop out) | DRSC10655 | 118 | 58.2 | – | – | inactive |
| CG17760 | DRSC06694 | 125 | 213 | – | – | inactive |
| CG10866 | DRSC08171 | 114 | 90.2 | – | – | inactive |
| ome (omega) | DRSC10282 | 61.9 | 70.8 | – | – | active |
| ome (omega) | DRSC11380 | 119 | 174 | – | – | inactive |
| Gs2 (Glutamine synthetase 2) | DRSC20250 | 93 | 121 | – | – | inactive |
| PolE4 (DNA polymerase epsilon subunit 4) | DRSC04105 | 89.9 | 114 | – | – | inactive |
| Obp18a (Odorant-binding protein 18a) | DRSC19736 | 167 | 84.3 | – | – | inactive |
| VhaPPA1-2 (Vacuolar H[+] ATPase PPA1 subunit 2) | DRSC16176 | 129 | 219 | – | – | inactive |
| CG7694 | DRSC16288 | 201 | 134 | – | – | inactive |
| Or22c (Odorant receptor 22c) | DRSC00766 | 132 | 156 | – | – | inactive |
| Smox (Smad on X) | DRSC18716 | 164 | 133 | – | – | inactive |
| Rpt3R (Regulatory particle triple-A ATPase 3-related) | DRSC16501 | 132 | 94.6 | – | – | inactive |
| dwg (deformed wings) | DRSC18766 | 114 | 169 | – | – | inactive |
| Odc1 (Ornithine decarboxylase 1) | DRSC07482 | 183 | 158 | – | – | inactive |
| CG15200 | DRSC19647 | 96.5 | 82.6 | – | – | inactive |
| CG14135 | DRSC10140 | 46 | 56.2 | – | – | active |
| CG5043 | DRSC02805 | 79.7 | 143 | – | – | active |
| CG13855 | DRSC14705 | 183 | 148 | – | – | inactive |
| tadr (torn and diminished rhabdomeres) | DRSC03177 | 107 | 121 | – | – | inactive |
| CG42613 | DRSC14769 | 101 | 86.7 | – | – | inactive |
| CG42613 | DRSC15802 | 126 | 149 | – | – | inactive |
| CG42613 | DRSC22613 | 98.1 | 180 | – | – | inactive |
| CG9521 | DRSC20196 | 82 | 162 | – | – | inactive |
| CG15543 | DRSC15081 | 166 | 222 | – | – | inactive |
| Edem2 (ER degradation enhancer, mannosidase alpha-like 2) | DRSC02877 | 127 | 105 | – | – | inactive |
| galene | DRSC08640 | 107 | 141 | – | – | inactive |
| galene | DRSC08641 | 85.2 | 101 | – | – | inactive |
| PH4alphaPV (prolyl-4-hydroxylase-alpha PV) | DRSC22400 | 93.8 | 119 | – | – | inactive |
| snoRNA:Me28S-C3227a + snoRNA:Me18S-A1061 + snoRNA:Me28S-C3227b + 7 more | DRSC05497 | 132 | 101 | 7806 | 108 | inactive |
| CG4612 | DRSC04478 | 152 | 91.4 | – | – | inactive |
| DAAM (Dishevelled Associated Activator of Morphogenesis) | DRSC18479 | 110 | 159 | – | – | inactive |
| RAF2 (RING-associated factor 2) | DRSC10443 | 147 | 102 | – | – | inactive |
| RAF2 (RING-associated factor 2) | DRSC10454 | 146 | 204 | – | – | inactive |
| Rgl (Ral guanine nucleotide dissociation stimulator-like) | DRSC11267 | 143 | 93.5 | – | – | inactive |
| RpL18A (Ribosomal protein L18A) | DRSC07538 | 128 | 101 | – | – | inactive |
| dmrt93B (doublesex-Mab related 93B) | DRSC15865 | 172 | 117 | – | – | inactive |
| PolD1 (DNA polymerase delta subunit 1) | DRSC11138 | 98.2 | 148 | – | – | inactive |
| CG3288 | DRSC11745 | 128 | 145 | – | – | inactive |
| CG30060 | DRSC05419 | 79.7 | 132 | – | – | inactive |
| AstC-R2 (Allatostatin C receptor 2) | DRSC10051 | 124 | 171 | – | – | inactive |
| Srrm234 (Serine-arginine repetitive matrix 2/3/4) | DRSC08606 | 172 | 85 | – | – | inactive |
| CG3397 | DRSC15487 | 143 | 136 | – | – | inactive |
| ms(2)34Fe (male sterile (2) 34Fe) | DRSC01905 | 101 | 85.6 | – | – | inactive |
| Cenp-C (Centromeric protein-C) | DRSC14371 | 125 | 143 | – | – | inactive |
| Or69a (Odorant receptor 69a) | DRSC11243 | 67.1 | 87.7 | – | – | inactive |
| CG7668 | DRSC10901 | 107 | 105 | – | – | inactive |
| Rpp25 (Ribonuclease P/MRP subunit p25) | DRSC05002 | 125 | 193 | – | – | inactive |
| CycJ (Cyclin J) | DRSC08653 | 89.9 | 99.5 | – | – | inactive |
| Or85f (Odorant receptor 85f) | DRSC16769 | 119 | 96.9 | – | – | inactive |
| mino (minotaur) | DRSC14132 | 106 | 187 | – | – | inactive |
| b6 | DRSC18740 | 137 | 138 | – | – | inactive |
| CG43109 | DRSC05754 | 113 | 102 | – | – | inactive |
| sna (snail) | DRSC03613 | 156 | 120 | – | – | inactive |
| Ice2 (Interacts with the C terminus of ELL 2) | DRSC14268 | 172 | 274 | – | – | inactive |
| CG31551 | DRSC12159 | 148 | 149 | 122 | 134 | inactive |
| CG31551 | DRSC22403 | 71 | 156 | – | – | inactive |
| lush | DRSC11364 | 97.8 | 106 | – | – | inactive |
| CG33922 | DRSC00050 | 84.5 | 169 | – | – | active |
| CG12541 | DRSC17483 | – | – | – | – | active |
| CG12541 | DRSC17839 | 258 | 102 | – | – | inactive |
| CG12206 | DRSC17828 | 128 | 123 | – | – | inactive |
| mRpS23 (mitochondrial ribosomal protein S23) | DRSC01348 | 214 | 107 | – | – | inactive |
| CG32119 | DRSC09248 | 7457 | 127 | – | – | inactive |
| CG32119 | DRSC21462 | 108 | 97 | – | – | inactive |
| CG43610 | DRSC00949 | 64.6 | 116 | – | – | active |
| Spn28Db (Serpin 28Db) | DRSC22033 | 112 | 267 | – | – | inactive |
| AlaRS-m (Alanyl-tRNA synthetase, mitochondrial) | DRSC09660 | 113 | 88.6 | – | – | inactive |
| mRNA-cap (mRNA-capping-enzyme) | DRSC19789 | 45.7 | 98.3 | – | – | active |
| CG13226 | DRSC06346 | 121 | 139 | – | – | inactive |
| Nedd4 | DRSC11234 | 133 | 136 | – | – | inactive |
| Nedd4 | DRSC21548 | 255 | 114 | – | – | inactive |

9 of these entries, set out differently.
sna (snail) [DRSC03613] — calcium signal, replicate 1: 156; calcium signal, replicate 2: 120; outcome: inactive
Ice2 (Interacts with the C terminus of ELL 2) [DRSC14268] — calcium signal, replicate 1: 172; calcium signal, replicate 2: 274; outcome: inactive
CG31551 [DRSC12159] — calcium signal, replicate 1: 148; calcium signal, replicate 2: 149; retest calcium signal, replicate 1: 122; retest calcium signal, replicate 2: 134; outcome: inactive
CG31551 [DRSC22403] — calcium signal, replicate 1: 71; calcium signal, replicate 2: 156; outcome: inactive
lush [DRSC11364] — calcium signal, replicate 1: 97.8; calcium signal, replicate 2: 106; outcome: inactive
CG33922 [DRSC00050] — calcium signal, replicate 1: 84.5; calcium signal, replicate 2: 169; outcome: active
CG12541 [DRSC17483] — outcome: active
CG12541 [DRSC17839] — calcium signal, replicate 1: 258; calcium signal, replicate 2: 102; outcome: inactive
CG12206 [DRSC17828] — calcium signal, replicate 1: 128; calcium signal, replicate 2: 123; outcome: inactive
